The target in this assay is T1, CLN7 (human (endogenous in SH-SY5Y)) (UniProt Q8NHS3).
T1 sequence: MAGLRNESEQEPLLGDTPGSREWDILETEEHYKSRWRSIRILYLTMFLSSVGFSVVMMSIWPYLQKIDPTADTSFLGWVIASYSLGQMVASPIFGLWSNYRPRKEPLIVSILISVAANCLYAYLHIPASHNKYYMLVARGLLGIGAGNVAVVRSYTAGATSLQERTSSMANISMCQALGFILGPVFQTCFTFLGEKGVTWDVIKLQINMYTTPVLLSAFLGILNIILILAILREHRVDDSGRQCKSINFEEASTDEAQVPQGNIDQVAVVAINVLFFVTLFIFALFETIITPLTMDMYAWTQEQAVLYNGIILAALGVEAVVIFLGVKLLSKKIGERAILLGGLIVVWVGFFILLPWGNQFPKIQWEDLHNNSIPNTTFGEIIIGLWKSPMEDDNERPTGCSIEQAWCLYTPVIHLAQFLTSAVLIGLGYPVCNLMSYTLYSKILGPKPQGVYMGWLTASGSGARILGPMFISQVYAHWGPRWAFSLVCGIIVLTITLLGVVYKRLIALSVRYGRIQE
Nature of the assay: affinity purification with mass spectrometry; endogenous CLN7 immunoprecipitated from 2.5 mg SH-SY5Y lysate with a polyclonal anti-CLN7 antibody raised against L9 (351-421aa, Proteintech) on G-sepharose beads; IgG as non-specific binding control; 4 independent replicates; cells under steady state culture conditions.

These are yes or no findings as the source states them, for the method shown. In cells and extracts the contact can be indirect. A yes stands for co-enrichment or nearness to the bait. Other partners may have been found.

B1: NHSL2 (protein, UniProt Q5HYW2 1-1225)
chain: MPFYRRTVVPQRLCPRNPPQQLAELRDVSHLAALSLLRQLADLCGHSLALLEDLEGHLLALGRRTDSLYRRTVRLRRRLPCRLLGPEEDEEELAAANSGRENATATAHSRSSWRQPVNVFLSSGRPPSVEELLREAQLNLQSLLQEEYEEQYSEARLVGQTFRSSDEATKPTPNPRPQSARRLEFILMPTKRQLSEDETTTQGVRAPEASLSLSTTADKQTAWNSLFPLPILEEKRWPQLCSTQSDIVPINISGQQFDKHASLRHSLFNTETAVNPKSTLRRRRTIIGFSNFSQRDQGHSNSPAGSVAHSTTSDIRPSHSVPEGVHGRVAVGQDARFPSLTSPVLRTPSSEPDEPHQARSGPNPPGMESMGMVYSVPSSCNGPTESTFSTSWKGDAFTYMTPSATSQSNQVNENGKNPSCGNSWVSLNKVPPLVPKEAATLLVARDNPAGCSGSAGYPERLIQQRHMPERPSKIGLLTSGTSRLETGPGGASRFRERSLSVPTDSGTTDVDYDEEQKANEACALPFASTSSEGSNSADNIASLSAQQEAQHRRQRSKSISLRKAKKKPSPPTRSVSLVKDEPGLLPEGGSALPKDQRPKSLCLSLEHQGHHSSHPDAQGHPAIPNHKDPESTQFSHHWYLTDWKSGDTYQSLSSSSTATGTTVIECTQVQGSSESLASPSTSRATTPSQLSIEVEAREISSPGRPPGLMSPSSGYSSQSETPTPTVSMSLTLGHLPPPSSSVRVRPVVPERKSSLPPTSPMEKFPKSRLSFDLPLTSSPNLDLSGMSISIRSKTKVSRHHSETNFGVKLAQKTNPNQPIMPMVTQSDLRSVRLRSVSKSEPEDDIESPEYAEEPRAEEVFTLPERKTKPPVAEKPPVARRPPSLVHKPPSVPEEYALTSPTLAMPPRSSIQHARPLPQDSYTVVRKPKPSSFPDGRSPGESTAPSSLVFTPFASSSDAFFSGTQQPPQGSVEDEGPKVRVLPERISLQSQEEAEKKKGKIPPPVPKKPSVLYLPLTSPTAQMEAYVAEPRLPLSPIITLEEDTKCPATGDDLQSLGQRVTSTPQADSEREASPLGSSVEPGTEEKSLISDKTAEWIAEDDDDVFVASRTTEDLFTVIHRSKRKLLGWKEPGEAFVGGRTSSHSPIKNTAESPISESTATAGSGSSANLDAGRNDDFKALLQKKGSKATPRSRPSAAELLKTTNPLARRIIAQFSKDYETTDNPST
As for B1, the binding result is recorded as “binds”.

B2: AUTS2 (protein, UniProt Q8WXX7 1-1259)
chain: MDGPTRGHGLRKKRRSRSQRDRERRSRGGLGAGAAGGGGAGRTRALSLASSSGSDKEDNGKPPSSAPSRPRPPRRKRRESTSAEEDIIDGFAMTSFVTFEALEKDVALKPQERVEKRQTPLTKKKREALTNGLSFHSKKSRLSHPHHYSSDRENDRNLCQHLGKRKKMPKALRQLKPGQNSCRDSDSESASGESKGFHRSSSRERLSDSSAPSSLGTGYFCDSDSDQEEKASDASSEKLFNTVIVNKDPELGVGTLPEHDSQDAGPIVPKISGLERSQEKSQDCCKEPIFEPVVLKDPCPQVAQPIPQPQTEPQLRAPSPDPDLVQRTEAPPQPPPLSTQPPQGPPEAQLQPAPQPQVQRPPRPQSPTQLLHQNLPPVQAHPSAQSLSQPLSAYNSSSLSLNSLSSSRSSTPAKTQPAPPHISHHPSASPFPLSLPNHSPLHSFTPTLQPPAHSHHPNMFAPPTALPPPPPLTSGSLQVAGHPAGSTYSEQDILRQELNTRFLASQSADRGASLGPPPYLRTEFHQHQHQHQHTHQHTHQHTFTPFPHAIPPTAIMPTPAPPMFDKYPTKVDPFYRHSLFHSYPPAVSGIPPMIPPTGPFGSLQGAFQPKTSNPIDVAARPGTVPHTLLQKDPRLTDPFRPMLRKPGKWCAMHVHIAWQIYHHQQKVKKQMQSDPHKLDFGLKPEFLSRPPGPSLFGAIHHPHDLARPSTLFSAAGAAHPTGTPFGPPPHHSNFLNPAAHLEPFNRPSTFTGLAAVGGNAFGGLGNPSVTPNSMFGHKDGPSVQNFSNPHEPWNRLHRTPPSFPTPPPWLKPGELERSASAAAHDRDRDVDKRDSSVSKDDKERESVEKRHSSHPSPAPVLPVNALGHTRSSTEQIRAHLNTEAREKDKPKERERDHSESRKDLAADEHKAKEGHLPEKDGHGHEGRAAGEEAKQLARVPSPYVRTPVVESARPNSTSSREAEPRKGEPAYENPKKSSEVKVKEERKEDHDLPPEAPQTHRASEPPPPNSSSSVHPGPLASMPMTVGVTGIHPMNSISSLDRTRMMTPFMGISPLPGGERFPYPSFHWDPIRDPLRDPYRELDIHRRDPLGRDFLLRNDPLHRLSTPRLYEADRSFRDREPHDYSHHHHHHHHPLSVDPRREHERGGHLDERERLHMLREDYEHTRLHSVHPASLDGHLPHPSLITPGLPSMHYPRISPTAGNQNGLLNKTPPTAALSAPPPLISTLGGRPVSPRRTTPLSAEIRERPPSHTLKDIEAR
B2: the binding result is given as “binds”.

B3: BRIX1 (protein, UniProt Q8TDN6 1-353)
chain: MAATKRKRRGGFAVQAKKPKRNEIDAEPPAKRHATAEEVEEEERDRIPGPVCKGKWKNKERILIFSSRGINFRTRHLMQDLRMLMPHSKADTKMDRKDKLFVINEVCEMKNCNKCIYFEAKKKQDLYMWLSNSPHGPSAKFLVQNIHTLAELKMTGNCLKGSRPLLSFDPAFDELPHYALLKELLIQIFSTPRYHPKSQPFVDHVFTFTILDNRIWFRNFQIIEEDAALVEIGPRFVLNLIKIFQGSFGGPTLYENPHYQSPNMHRRVIRSITAAKYREKQQVKDVQKLRKKEPKTLLPHDPTADVFVTPAEEKPIEIQWVKPEPKVDLKARKKRIYKRQRKMKQRMDSGKTK
As for B3, the binding result is recorded as “binds”.

B4: HSPA14 (protein, UniProt Q0VDF9 1-509)
chain: MAAIGVHLGCTSACVAVYKDGRAGVVANDAGDRVTPAVVAYSENEEIVGLAAKQSRIRNISNTVMKVKQILGRSSSDPQAQKYIAESKCLVIEKNGKLRYEIDTGEETKFVNPEDVARLIFSKMKETAHSVLGSDANDVVITVPFDFGEKQKNALGEAARAAGFNVLRLIHEPSAALLAYGIGQDSPTGKSNILVFKLGGTSLSLSVMEVNSGIYRVLSTNTDDNIGGAHFTETLAQYLASEFQRSFKHDVRGNARAMMKLTNSAEVAKHSLSTLGSANCFLDSLYEGQDFDCNVSRARFELLCSPLFNKCIEAIRGLLDQNGFTADDINKVVLCGGSSRIPKLQQLIKDLFPAVELLNSIPPDEVIPIGAAIEAGILIGKENLLVEDSLMIECSARDILVKGVDESGASRFTVLFPSGTPLPARRQHTLQAPGSISSVCLELYESDGKNSAKEETKFAQVVLQDLDKKENGLRDILAVLTMKRDGSLHVTCTDQETGKCEAISIEIAS
In the case of B4, the binding result was “binds”.

B5: ADAR (protein, UniProt P55265 1-1226)
chain: MNPRQGYSLSGYYTHPFQGYEHRQLRYQQPGPGSSPSSFLLKQIEFLKGQLPEAPVIGKQTPSLPPSLPGLRPRFPVLLASSTRGRQVDIRGVPRGVHLRSQGLQRGFQHPSPRGRSLPQRGVDCLSSHFQELSIYQDQEQRILKFLEELGEGKATTAHDLSGKLGTPKKEINRVLYSLAKKGKLQKEAGTPPLWKIAVSTQAWNQHSGVVRPDGHSQGAPNSDPSLEPEDRNSTSVSEDLLEPFIAVSAQAWNQHSGVVRPDSHSQGSPNSDPGLEPEDSNSTSALEDPLEFLDMAEIKEKICDYLFNVSDSSALNLAKNIGLTKARDINAVLIDMERQGDVYRQGTTPPIWHLTDKKRERMQIKRNTNSVPETAPAAIPETKRNAEFLTCNIPTSNASNNMVTTEKVENGQEPVIKLENRQEARPEPARLKPPVHYNGPSKAGYVDFENGQWATDDIPDDLNSIRAAPGEFRAIMEMPSFYSHGLPRCSPYKKLTECQLKNPISGLLEYAQFASQTCEFNMIEQSGPPHEPRFKFQVVINGREFPPAEAGSKKVAKQDAAMKAMTILLEEAKAKDSGKSEESSHYSTEKESEKTAESQTPTPSATSFFSGKSPVTTLLECMHKLGNSCEFRLLSKEGPAHEPKFQYCVAVGAQTFPSVSAPSKKVAKQMAAEEAMKALHGEATNSMASDNQPEGMISESLDNLESMMPNKVRKIGELVRYLNTNPVGGLLEYARSHGFAAEFKLVDQSGPPHEPKFVYQAKVGGRWFPAVCAHSKKQGKQEAADAALRVLIGENEKAERMGFTEVTPVTGASLRRTMLLLSRSPEAQPKTLPLTGSTFHDQIAMLSHRCFNTLTNSFQPSLLGRKILAAIIMKKDSEDMGVVVSLGTGNRCVKGDSLSLKGETVNDCHAEIISRRGFIRFLYSELMKYNSQTAKDSIFEPAKGGEKLQIKKTVSFHLYISTAPCGDGALFDKSCSDRAMESTESRHYPVFENPKQGKLRTKVENGEGTIPVESSDIVPTWDGIRLGERLRTMSCSDKILRWNVLGLQGALLTHFLQPIYLKSVTLGYLFSQGHLTRAICCRVTRDGSAFEDGLRHPFIVNHPKVGRVSIYDSKRQSGKTKETSVNWCLADGYDLEILDGTRGTVDGPRNELSRVSKKNIFLLFKKLCSFRYRRDLLRLSYGEAKKAARDYETAKNYFKKGLKDMGYGNWISKPQEEKNFYLCPV
For the molecule B5, the binding result is recorded as “binds”.

B6: PSPC1 (protein, UniProt Q8WXF1 1-523)
chain: MMLRGNLKQVRIEKNPARLRALESAVGESEPAAAAAMALALAGEPAPPAPAPPEDHPDEEMGFTIDIKSFLKPGEKTYTQRCRLFVGNLPTDITEEDFKRLFERYGEPSEVFINRDRGFGFIRLESRTLAEIAKAELDGTILKSRPLRIRFATHGAALTVKNLSPVVSNELLEQAFSQFGPVEKAVVVVDDRGRATGKGFVEFAAKPPARKALERCGDGAFLLTTTPRPVIVEPMEQFDDEDGLPEKLMQKTQQYHKEREQPPRFAQPGTFEFEYASRWKALDEMEKQQREQVDRNIREAKEKLEAEMEAARHEHQLMLMRQDLMRRQEELRRLEELRNQELQKRKQIQLRHEEEHRRREEEMIRHREQEELRRQQEGFKPNYMENREQEMRMGDMGPRGAINMGDAFSPAPAGNQGPPPMMGMNMNNRATIPGPPMGPGPAMGPEGAANMGTPMMPDNGAVHNDRFPQGPPSQMGSPMGSRTGSETPQAPMSGVGPVSGGPGGFGRGSQGGNFEGPNKRRRY
For B6, the binding entry is on record as “binds”.
